Source: patent US9303040B2, “Substituted piperazines as AKT inhibitors” (ARRAY BIOPHARMA INC., priority 2006, dated 2016)
Counter-ions that a name gives are not always drawn. Some of these results come from one statement about several compounds together.

By UniProt entry, the sequences of proteins in these tests, tags left out. Where a name states a change or a piece, a line headed by the entry shows the natural chain unless it says otherwise.
UniProt P31749: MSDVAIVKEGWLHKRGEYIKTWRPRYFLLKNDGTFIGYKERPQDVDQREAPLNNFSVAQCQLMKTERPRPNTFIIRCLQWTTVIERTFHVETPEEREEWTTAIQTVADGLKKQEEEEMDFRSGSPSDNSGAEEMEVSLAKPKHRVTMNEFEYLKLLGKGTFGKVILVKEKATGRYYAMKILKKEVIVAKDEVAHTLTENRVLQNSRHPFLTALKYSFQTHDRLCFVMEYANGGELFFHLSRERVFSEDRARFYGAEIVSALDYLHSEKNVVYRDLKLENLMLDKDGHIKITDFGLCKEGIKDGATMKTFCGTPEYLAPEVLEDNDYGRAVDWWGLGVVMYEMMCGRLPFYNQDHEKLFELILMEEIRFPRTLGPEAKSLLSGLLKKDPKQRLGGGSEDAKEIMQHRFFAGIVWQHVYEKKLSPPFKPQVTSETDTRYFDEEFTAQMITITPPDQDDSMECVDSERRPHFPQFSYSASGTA

Target: T1, full-length human recombinant active AKT-1 (Homo sapiens, UniProt P31749)
T1 construct: The AKT-1 used is made from full-length, human recombinant AKT-1
Assay: AKT-1 Kinase Assay (IMAP fluorescence polarization, phosphorylation of fluorescently-labeled peptide)
Type: biochemical

IC50, < 10 µM:
C[C@@H]1SCc2ncnc(N3CCN(C(=O)C(CN4CCCC4)c4ccc(Cl)cc4)C[C@@H]3C)c21 (stereo partly drawn) [Example 53, 2-(4-chlorophenyl)-1-((S)-3-methyl-4-((S)-5-methyl-5,7-dihydrothieno[3,4-d]pyrimidin-4-yl)piperazin-1-yl)-3-(pyrrolidin-1-yl)propan-1-one]
CC1SCc2ncnc(N3CCN(C(=O)C(CC4(N(C)C)CC4)c4ccc(Cl)cc4)CC3)c21 (stereo not shown) [Example 25, 2-(4-chlorophenyl)-3-(1-(dimethylamino)cyclopropyl)-1-(4-(5-methyl-5,7-dihydrothieno[3,4-d]pyrimidin-4-yl)piperazin-1-yl)propan-1-one]
CC(C)NCC(C(=O)N1CCN(c2ncnc3c2[C@H](C)SC3)CC1)c1ccc(F)c(F)c1 (mixture of isomers) [Example 14, 2-(3,4-difluorophenyl)-3-(isopropylamino)-1-(4-((S)-5-methyl-5,7-dihydrothieno[3,4-d]pyrimidin-4-yl)piperazin-1-yl)propan-1-one dihydrochloride]
C[C@H]1SCc2ncnc(N3CCN(C(=O)C(c4ccc(Cl)cc4)C4(N)CC4)CC3)c21 (stereo partly drawn) [Example 41, 2-(1-aminocyclopropyl)-2-(4-chlorophenyl)-1-(4-((R)-5-methyl-5,7-dihydrothieno[3,4-d]pyrimidin-4-yl)piperazin-1-yl)ethanone]
C[C@H]1SCc2ncnc(N3CCN(C(=O)C(CC4(N)CC4)c4ccc(Cl)c(F)c4)CC3)c21 (stereo partly drawn) [Example 43, 3-(1-aminocyclopropyl)-2-(4-chloro-3-fluorophenyl)-1-(4-((R)-5-methyl-5,7-dihydrothieno[3,4-d]pyrimidin-4-yl)piperazin-1-yl)propan-1-one]
CN[C@H](Cc1ccc(OCc2ccccc2)cc1)C(=O)N1CCN(c2ncnc3c2[C@H](C)SC3)[C@@H](C)C1 [Example 62, (R)-3-(4-(benzyloxy)phenyl)-1-((S)-3-methyl-4-((S)-5-methyl-5,7-dihydrothieno[3,4-d]pyrimidin-4-yl)piperazin-1-yl)-2-(methylamino)propan-1-one]
C[C@@H]1SCc2ncnc(N3CCN(C(=O)C(CC(C)(C)N)c4ccc(Cl)c(F)c4)C[C@@H]3C)c21 (stereo partly drawn) [Example 57, 4-amino-2-(4-chloro-3-fluorophenyl)-4-methyl-1-((S)-3-methyl-4-((S)-5-methyl-5,7-dihydrothieno[3,4-d]pyrimidin-4-yl)piperazin-1-yl)pentan-1-one]
C[C@H]1SCc2ncnc(N3CCN(C(=O)C(CC(C)(C)N)c4ccc(Cl)c(F)c4)CC3)c21 (stereo partly drawn) [Example 46, 4-amino-2-(4-chloro-3-fluorophenyl)-4-methyl-1-(4-((R)-5-methyl-5,7-dihydrothieno[3,4-d]pyrimidin-4-yl)piperazin-1-yl)pentan-1-one]
C[C@H]1SCc2ncnc(N3CCN(C(=O)[C@H](N)Cc4ccc(F)cc4)CC3)c21 [Example 37, (R)-2-amino-3-(4-fluorophenyl)-1-(4-((R)-5-methyl-5,7-dihydrothieno[3,4-d]pyrimidin-4-yl)piperazin-1-yl)propan-1-one]
CCC1SCc2ncnc(N3CCN(C(=O)[C@H](N)Cc4ccc(Cl)cc4)CC3)c21 (stereo partly drawn) [Example 9, (2R)-2-amino-3-(4-chlorophenyl)-1-(4-(5-ethyl-5,7-dihydrothieno[3,4-d]pyrimidin-4-yl)piperazin-1-yl)propan-1-one dihydrochloride]
